Assay results: patent publication US8633207B2, “Quinazoline compounds and methods of use thereof” (Ambit Biosciences Corporation, priority 2010, dated 2014)

Tested on: panel of distinct kinases, typically 359 or 386 kinases
Assay: Kinase selectivity score S(10) from competition binding panel
Conditions: number of kinases with inhibition of 90% or greater divided by number of distinct kinases tested
Protocol: Competition binding assays used herein were developed, validated and performed as described in Fabian et al., Nature Biotechnology 2005, 23, 329-336. Kinases were produced as fusions to T7 phage (See, Fabian et al. or WO04/015142) or alternatively, the kinases were expressed in HEK-293 cells and subsequently tagged with DNA for PCR detection (See, WO08/005,310). For the binding assays, streptavidin-coated magnetic beads were treated with biotinylated affinity ligands for 30 min at rt to generate affinity resins. The liganded beads were blocked with excess biotin and washed with blocking buffer (SeaBlock (Pierce), 1% BSA, 0.05% Tween 20, 1 mM DTT) to remove unbound ligand and to reduce non-specific binding. Binding reactions were assembled by combining kinase, liganded affinity beads, and test compounds in 1× binding buffer (20% SeaBlock, 0.17×PBS, 0.05% Tween 20, 6 mM DTT). Test compounds were prepared as 100× stocks in DMSO and rapidly diluted into the aqueous environment. DMSO was added to control assays lacking a test compound. Primary screen interactions were performed in polypropylene 384-well plates in a final volume of 34 μL, while Kd determinations were performed in polystyrene 96-well plates in a final volume of 135 μL. The assay plates were incubated at room temperature with shaking for 1 hour, long enough for binding reactions to reach equilibrium, and the affinity beads were washed extensively with wash buffer (1×PBS, 0.05% Tween 20) to remove unbound protein. The beads were then resuspended in elution buffer (1×PBS, 0.05% Tween 20, 2 μM non-biotinylated affinity ligand) and incubated at room temperature with shaking for 30 min. The kinase concentration in the eluates was measured by quantitative PCR. Each kinase was tested individually against each compound. Kds were determined using eleven serial threefold dilutions. A selectivity score, which is a quantitative measure of selectivity of a compound against a panel of enzymes, may be calculated for a compound by dividing the number of enzymes for which a compound meets a set criteria, (for example, a binding constant of 100 nM or less), by the total number of enzymes tested.

Compound | S-Score: S(10) at 10 μM
Cc1cc(Nc2nc(C(F)(F)c3ccc(F)cn3)nc3cc(C(N)=O)ccc23)n[nH]1 [Example 41, 2-(difluoro(5-fluoropyridin-2-yl)methyl)-4-((5-methyl-1H-pyrazol-3-yl)amino)quinazoline-7-carboxamide] | D (D > 0.5)
Cc1cc(Nc2nc(C(F)(F)c3ccc(F)cn3)nc3c(Cl)cccc23)n[nH]1 [Example 13, 8-chloro-2-(difluoro(5-fluoropyridin-2-yl)methyl)-N-(5-methyl-1H-pyrazol-3-yl)quinazolin-4-amine] | B (0.3 < B ≦ 0.4)
Cc1ccc2c(Nc3cc(C)[nH]n3)nc(C(F)(F)c3ccc(F)cn3)nc2c1 [Example 14, 2-(difluoro(5-fluoropyridin-2-yl)methyl)-7-methyl-N-(5-methyl-1H-pyrazol-3-yl)quinazolin-4-amine] | D (D > 0.5)
Cc1cc(Nc2nc(C(F)(F)c3ccc(F)cn3)nc3cc(Cl)ccc23)n[nH]1 [Example 16, 7-chloro-2-(difluoro(5-fluoropyridin-2-yl)methyl)-N-(5-methyl-1H-pyrazol-3-yl)quinazolin-4-amine] | B (0.3 < B ≦ 0.4)
Cc1cc(Nc2nc(C(F)(F)c3ncc(F)cn3)nc3c(Cl)cccc23)n[nH]1 [Example 40, 8-chloro-2-(difluoro(5-fluoropyrimidin-2-yl)methyl)-N-(5-methyl-1H-pyrazol-3-yl)quinazolin-4-amine] | B (0.3 < B ≦ 0.4)
Cc1cc(Nc2nc(C(F)(F)c3ccc(F)cn3)nc3c(S(C)(=O)=O)cccc23)n[nH]1 [Example 37, 2-(difluoro(5-fluoropyridin-2-yl)methyl)-N-(5-methyl-1H-pyrazol-3-yl)-8-(methylsulfonyl)quinazolin-4-amine] | A (A ≦ 0.3)
Cc1cc(Nc2nc(C(F)(F)c3ccc(F)cn3)nc3c(F)cccc23)n[nH]1 [Example 12, 2-(difluoro(5-fluoropyridin-2-yl)methyl)-8-fluoro-N-(3-methyl-1H-pyrazol-5-yl)quinazolin-4-amine] | C (0.4 < C ≦ 0.5)
COc1cccc2c(Nc3cc(C)[nH]n3)nc(C(F)(F)c3ccc(F)cn3)nc12 [Example 43, 2-(difluoro(5-fluoropyridin-2-yl)methyl)-8-methoxy-N-(5-methyl-1H-pyrazol-3-yl)quinazolin-4-amine] | C (0.4 < C ≦ 0.5)
CC(=O)Nc1cccc2c(Nc3cc(C)[nH]n3)nc(C(F)(F)c3ccc(F)cn3)nc12 [Example 48, N-(2-(difluoro(5-fluoropyridin-2-yl)methyl)-4-((5-methyl-1H-pyrazol-3-yl)amino)quinazolin-8-yl)acetamide] | C (0.4 < C ≦ 0.5)
Cc1cc(Nc2nc(C(F)(F)c3ccc(F)cn3)nc3cc(S(C)(=O)=O)ccc23)n[nH]1 [Example 38, 2-(difluoro(5-fluoropyridin-2-yl)methyl)-N-(5-methyl-1H-pyrazol-3-yl)-7-(methylsulfonyl)quinazolin-4-amine] | D (D > 0.5)
Cc1cc(Nc2nc(C(F)(F)c3ccc(F)cn3)nc3c(Br)cccc23)n[nH]1 [Example 11, 8-bromo-2-(difluoro(5-fluoropyridin-2-yl)methyl)-N-(5-methyl-1H-pyrazol-3-yl)quinazolin-4-amine] | A (A ≦ 0.3)
Cc1cc(Nc2nc(C(F)(F)c3ccc(F)cn3)nc3cc(F)ccc23)n[nH]1 [Example 15, 2-(difluoro(5-fluoropyridin-2-yl)methyl)-7-fluoro-N-(5-methyl-1H-pyrazol-3-yl)quinazolin-4-amine] | C (0.4 < C ≦ 0.5)
Cc1cc(Nc2nc(C(F)(F)c3ccc(F)cn3)nc3c(C#N)cccc23)n[nH]1 [Example 35, 2-(difluoro(5-fluoropyridin-2-yl)methyl)-4-((5-methyl-1H-pyrazol-3-yl)amino)quinazoline-8-carbonitrile] | A (A ≦ 0.3)
Cc1cnc(Nc2nc(C(F)(F)c3ccc(F)cn3)nc3ccccc23)s1 [Example 30, N-(2-(difluoro(5-fluoropyridin-2-yl)methyl)quinazolin-4-yl)-5-methylthiazol-2-amine] | A (A ≦ 0.3)
